From paper PMC3876986, “The Velvet Family of Fungal Regulators Contains a DNA-Binding Domain Structurally Similar to NF-κB”
Construct, isoform or probe ends are uncertain for at least one entry. For some of these results: The comparison behind a weaker result is the experiment's own reference, which may not be listed here. At least one verdict was read from the data and is not stated in words by the source. For some of these results: Where a protein sequence is shown, tags need not be part of it.

What was measured:
Assay in all cases: EMSA
[1] = target: VosA1-190 (VosA_cryst) (Aspergillus nidulans) (UniProt Q5BBX1); conditions: EMSA: 10 mM HEPES/NaOH pH 7.4, 150 mM NaCl, ~53 pmol DNA in 10 ul, RT 15 min; DNA:protein molar ratios 1:0.3 to 1:9; 6% PAGE, 0.5% TBE, ethidium bromide; recombinant protein; residues 1-190; protein details: Strep-tag (C-terminal)
[2] = target: T1, VeA1-224 (Aspergillus nidulans) (UniProt C8VTV4); conditions: EMSA: 10 mM HEPES/NaOH pH 7.4, 150 mM NaCl, ~53 pmol DNA in 10 ul, RT 15 min; DNA:protein molar ratios 1:0.3 to 1:9; 6% PAGE, 0.5% TBE, ethidium bromide; recombinant protein; residues 1-224; protein details: Strep-tag (C-terminal)
T1 sequence (looked up): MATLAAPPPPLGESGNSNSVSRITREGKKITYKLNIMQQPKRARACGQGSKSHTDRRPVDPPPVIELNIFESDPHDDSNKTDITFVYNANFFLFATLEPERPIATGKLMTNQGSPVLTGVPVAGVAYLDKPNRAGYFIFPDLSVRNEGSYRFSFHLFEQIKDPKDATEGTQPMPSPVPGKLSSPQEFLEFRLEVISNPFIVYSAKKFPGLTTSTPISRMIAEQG

[3] = target: T2, GST-VeA (Aspergillus nidulans) (UniProt C8VTV4); conditions: EMSA: 10 mM HEPES/NaOH pH 7.4, 150 mM NaCl, ~53 pmol DNA in 10 ul, RT 15 min; DNA:protein molar ratios 1:0.3 to 1:9; 6% PAGE, 0.5% TBE, ethidium bromide; recombinant protein; residues 1-573; protein details: GST (N-terminal, pGEX-5X-1)
T2 sequence (looked up): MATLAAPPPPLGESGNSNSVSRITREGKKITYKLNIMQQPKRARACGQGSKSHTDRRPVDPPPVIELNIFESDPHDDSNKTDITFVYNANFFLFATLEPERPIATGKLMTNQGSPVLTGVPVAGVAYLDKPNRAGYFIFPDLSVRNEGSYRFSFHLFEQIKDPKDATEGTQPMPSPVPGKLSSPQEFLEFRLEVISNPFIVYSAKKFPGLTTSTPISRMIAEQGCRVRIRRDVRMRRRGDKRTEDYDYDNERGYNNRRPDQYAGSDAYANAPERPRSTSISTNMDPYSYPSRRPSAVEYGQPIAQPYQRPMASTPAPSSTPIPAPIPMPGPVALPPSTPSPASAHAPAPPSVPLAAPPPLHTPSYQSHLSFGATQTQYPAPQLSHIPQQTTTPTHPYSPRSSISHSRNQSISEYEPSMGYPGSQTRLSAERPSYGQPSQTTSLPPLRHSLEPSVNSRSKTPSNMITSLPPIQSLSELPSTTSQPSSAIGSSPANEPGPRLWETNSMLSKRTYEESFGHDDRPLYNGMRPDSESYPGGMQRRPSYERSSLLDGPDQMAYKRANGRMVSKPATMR

Sequence	binding result [1]	binding result [2]	binding result [3]
ATTCGGCGACTAGGATCTTACCCGAG (double strand) [brlA-delta2-delta1 (JG640/641)]	binds more weakly	binds more weakly	–
ATTCGGCGACTAGGATCTTACCCGCGGCCGAG (double strand) [brlA-delta2 (JG636/637)]	binds more weakly	binds more weakly	–
ATTCGGCGACTAGGATCTTACTGGCCGAG (double strand) [brlA-delta1 (JG638/639)]	binds more weakly	binds more weakly	–
ATTCGGCGACTAGGATCTTACTGGCCGCGGCCGAG (double strand) [brlA 35 bp probe (OHS301/302)]	–	–	binds
